{"source": "patent US11685741B2", "about": "“Fluorescent probes” (University of Massachusetts, priority 2017, dated 2023)", "key": {"[1]": {"test": "Binding studies of sensor with Fe3+ (Job's plot, titration, EDTA reversibility)", "conditions": "ACN/Tris-HCl buffer pH 7.3", "procedure": "Job's method and UV-vis spectra were applied to study the binding stoichiometry between Rh-PK and Fe^3+ and monitored by the absorbance at 555 nm. […] The binding constant of this complex was calculated following a method reported previously (G. E. Tumambac, et al., Tetrahedron 2004, 60, 11293-11297), using absorption values at […] by the equations described below, and was determined to be 1.54×10^7 […].\nThe equations below was used to calculate the binding constants with stoichiometry of 1:1. L+S↔LS where L=sensor, S=Fe3+ and LS=sensor-Fe^3+ complex. The apparent binding constant is given by\n[formula] […] Au, Am, and Ac are the absorbances of solutions of L (before any Fe^3+ was added), during the titration and at saturation, respectively. […] [S]e=[S]o−[LS]e=[S]o−Fc[L]o The apparent binding constant K can then be calculated from […]\nThe stoichiometry of RhHPA-Fe^3+ was measured using Job's plot and mole ratio plots methods. B. Valeur, Molecular Fluorescence: Principles and Applications, Wiley-VCH. […] To determine the binding constant of chemosensor, a fluorescence titration of different amounts of Fe^3+ into the acetonitrile solution of sensor was carried out. […]\nAbsorption enhancement observation at 558 nm was plotted against the molar value of the [Fe^3+]/[Fe^3+]+RhHPA and [Fe^3+]/RhHPA. […] Binding constant of fluorescent sensor “RhHPA” was calculated and it was found as K=1.27×10^7 M^−1. […]"}, "[2]": {"system": "human fibroblast cells (ws1)", "test": "Confocal imaging of Fe3+ with Rh-PK in ws1 cells", "format": "cell-based", "conditions": "colocalization with MitoTracker / LysoTracker", "procedure": "Human SH-SY5Y neuroblastoma cells and primary fibroblast ws1 cells were obtained from ATCC (American Type Culture Collection). Cells were maintained in a 1:1 mixture of Eagle's Minimal Essential medium (ATCC) and Ham's F12 medium (ATCC) supplemented with 10% fetal bovine serum (FBS, ATCC) without antibiotics and incubated at 37° C. in a humidified 5% CO2 atmosphere. The cells were routinely sub-cultured using 0.05% trypsin-EDTA solution (ATCC). The cells were seeded onto 2-chamber slides for 48 h at 5×10^4 cells/chamber and grown until each chamber was 20-30% confluent. A stock solution of Rh-PK ([…] in […]) was diluted to a concentration of […] in culture medium without FBS. […] The fluorescence responses of the sensor in living cells were measured under a Zeiss LSM 710 laser scanning confocal microscope. […] The REUSE function controlled by Zeiss software was applied to guarantee that all spectra were recorded under the same instrumental conditions.\nThe ability of Rh-PK to track Fe^3+ in live human fibroblast cells (ws1) was tested via a laser scanning confocal microscope (Zeiss LSM 710). […] Turn on fluorescence was observed, which is likely being triggered by endogenous labile Fe^3+. […]\nFIG. 17A to FIG. 17C show the distribution of exchangeable Fe^3+ pools in live fibroblast cells (ws1). […] FIG. 17A is the Rh-PK-Fe3+ fluorescence intensity collected at 547-703 nm (red). […]"}, "[3]": {"system": "Bovine aortic endothelial cells (BAEC)", "test": "Confocal imaging of Fe3+ with RhHPA in BAEC cells", "format": "cell-based", "conditions": "MitoTracker Green FM and LysoTracker blue DND-22", "procedure": "Primary cultured Bovine aortic endothelial cells (BAEC) were passaged in Endothelial Basal Medium (Lonza) containing 5% fetal bovine serum. Before the experiment, the cells were cultured to about 8th generation. For experiment preparation, the cells were routinely subcultured using 0.05% trypsin-EDTA solution. The cells were seeded on the 25 cm^2 flask and medium change every two days until a 70% confluency before transferring into disks. The cells were seeded on the 1 cm^2 disk and a medium change the next day.\nTo evaluate the ability of RhHPA to capture Fe^3+ ions in cells, BAEC cells were incubated with the sensor (10 μM) for 30 min.\nBAEC cells were incubated with 10 μM of ferric chloride (FeCl3) at 37° C. for overnight, then 10 μM of RhHPA was added to BAEC cells and was incubated at 37° C. for 30 min.\nFor the second control experiment, an Fe^3+-chelator SIH was added to iron-loaded and non-iron-loaded cells with RhHPA.\nBAEC cells (without Fe^3+ treatment) were treated with RhHPA, MitoTracker Green FM and LysoTracker blue DND-22. As shown in FIG. 20A to FIG. 20H, there are partial colocalization between RhHPA-Fe^3+ and the MitoTracker (FIG. 20E) as well as that between RhHPA-Fe^3+ and the LysoTracker (FIG. 20F); however, a […] colocalization was observed among RhHPA-Fe^3+, MitoTracker and LysoTracker (FIG. 20G)."}}, "note": "Entries after “also recorded” stand apart in the source; their conditions may differ."}
{"smiles": "CCN(CC)c1ccc2c(c1)Oc1cc(N(CC)CC)ccc1C21c2ccccc2C(=O)N1CC/N=C(\\C)c1cccc(C(C)=O)n1", "note": "[Rh-PK, (E)-2-(2-((1-(6-acetylpyridin-2-yl)ethylidene)amino)ethyl)-3′,6′-bis(diethylamino)spiro[isoindoline-1,9′-xanthen]-3-one]", "values": [{"measurement": "reversibility of binding on addition of EDTA", "setting": "[1]", "value": "reversible binding"}, {"measurement": "subcellular location of labile Fe^3+ detected", "setting": "[2]", "value": "mitochondria and lysosomes"}, {"measurement": "subcellular location of labile Fe^3+ detected", "setting": "[2]; listed as Rh-Pk", "value": "mitochondria only"}]}
{"smiles": "CCN(CC)c1ccc2c(c1)Oc1cc(N(CC)CC)ccc1C21c2ccccc2C(=O)N1/N=C/c1cccc(CO)n1", "note": "[RhHPA, (E)-3′,6′-bis(diethylamino)-2-(((6-(hydroxymethyl)pyridin-2-yl)methylene)amino)spiro[isoindoline-1,9′-xanthen]-3-one]", "values": [{"measurement": "reversibility of binding on addition of EDTA", "setting": "[1]", "value": "reversible"}, {"measurement": "subcellular location of exchangeable Fe^3+ pools detected", "setting": "[3]", "value": "mitochondria and lysosomes; also recorded: mitochondria and endosomes/lysosomes, not in cytosol"}]}
